Laboratory results taken from paper PMC8860610.
Results are given in words; binding and its absence hold for the method and conditions named. A result given as binding can be weak or reduced; the word gives no strength. Where a sequence is shown, tags or fusion partners need not be part of it.

What was measured:
[1] = biological target: T1, peptide 6 of the Tof1_C peptide library (Tof1 aa 1001-1022) (Saccharomyces cerevisiae) (UniProt P53840); test: pull-down; desthiobiotin-tagged Tof1_C peptides immobilised on streptavidin Dynabeads M-280, buffer M (25 mM HEPES-NaOH pH 7.6, 50 mM NaCl, 0.02% NP-40), prey (S_N, Top1) 1 h, eluted with 5 mM biotin, SDS-PAGE; both purified
T1 sequence (peptide, desthiobiotin linker): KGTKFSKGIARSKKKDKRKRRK

[2] = biological target: T2, GST-tagged Tof1_C (938-1238 aa) (Saccharomyces cerevisiae) (UniProt P53840); test: pull-down; 1.5 μM GST fusion proteins (Tof1_N, Tof1_M, Tof1_C, Csm3) as bait on glutathione agarose, 3 μM fl FACT or FACT truncations as prey, 90 min at 4°C, washed with buffer G (300 mM NaCl), eluted with glutathione, SDS-PAGE; both purified
T2 sequence: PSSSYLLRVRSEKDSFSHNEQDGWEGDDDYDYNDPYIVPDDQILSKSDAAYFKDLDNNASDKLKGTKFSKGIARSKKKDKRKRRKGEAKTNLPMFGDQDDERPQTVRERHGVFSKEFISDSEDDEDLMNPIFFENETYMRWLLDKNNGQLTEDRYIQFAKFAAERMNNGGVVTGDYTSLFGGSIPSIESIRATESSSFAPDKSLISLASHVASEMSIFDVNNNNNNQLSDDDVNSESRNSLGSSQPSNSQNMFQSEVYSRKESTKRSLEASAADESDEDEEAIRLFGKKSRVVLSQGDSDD

## N-domain of Spt16 (S_N) (Saccharomyces cerevisiae) (domain or fragment)
[1]
  binding: binds
[2]
  binding: binds
